# Patent publication US8618075B2, “Certain compounds, compositions and methods” (Eisai Inc., priority 2007, dated 2013)
# For at least one compound, name, drawing or mass did not settle the structure.
# Tested on: A2780 human ovarian cancer xenograft
# Test: Gemcitabine-induced reduction of tumor volume in the mouse A2780 human ovarian cancer xenograft model
# Type: in vivo
# Protocol: Female NCr nu/nu 5-6 week old mice are implanted subcutaneously with 30 to 60 mg tumor fragments. On day 11 when the tumors are approximately 200 mm^3, treatment starts as described in Table 5.
# Tumor volume is followed throughout the experiment. Tumor volume is measured three times weekly. Tumor burden (mg=mm^3) is calculated from caliper measurements by the formula for the volume of a prolate ellipsoid (L×W^2)/2 where L and W are the respective orthogonal length and width measurements (mm).
# The primary endpoints used to evaluate efficacy in the A2780 model are complete and partial tumor regressions, tumor growth delay and the number of tumor free survivors at the end of the study. A complete response (CR) is defined as a decrease in tumor size to an undetectable size (<50mm^3). A partial response (PR) is defined as >50% decrease in tumor mass form starting tumor size. A tumor that achieves a CR or PR during the study but starts to grow again is still considered a CR or PR. Tumor free survival (TFS) at the end of the study would be no detectable tumor (<50 mm^3) at study termination (day 74). Tumor growth delay (TGD) is defined in this experiment as the median number of days for the treatment group compared to the control group to reach 750 mm^3.
smiles,measurement,setting,value
"O=C1NC(O)CCN1C1O[C@H](CO)[C@@H](O)C1(F)F (stereo partly drawn) [Compound 1, 2′2′-DiFluoro-TetraHydroUridine]",Tumor free survivors (TFS) at day 74,10 mg/kg Gemcitabine PO + Compound 1 10 mg/kg PO q3dx4,no TFS
same,Effect on tumor growth,"Compound 1 alone, 10 mg/kg PO q3dx4",no effect on tumor growth
same,Tumor volume effect compared to gemcitabine alone,combination treatment with Compound 1 and gemcitabine,more effective than gemcitabine alone
